Data from publication doi:10.1101/517789.
Like-named read-outs stand apart in the source and are kept apart here. These are yes or no findings as the source states them, for the method shown. In cells and extracts the contact can be indirect. Some entries that bind do so weakly or less than the wild type. For part of these data: Sequences can lack the tags named with a protein.

Chains of the proteins cited; added tags and fusions are not shown.
UniProt P11531: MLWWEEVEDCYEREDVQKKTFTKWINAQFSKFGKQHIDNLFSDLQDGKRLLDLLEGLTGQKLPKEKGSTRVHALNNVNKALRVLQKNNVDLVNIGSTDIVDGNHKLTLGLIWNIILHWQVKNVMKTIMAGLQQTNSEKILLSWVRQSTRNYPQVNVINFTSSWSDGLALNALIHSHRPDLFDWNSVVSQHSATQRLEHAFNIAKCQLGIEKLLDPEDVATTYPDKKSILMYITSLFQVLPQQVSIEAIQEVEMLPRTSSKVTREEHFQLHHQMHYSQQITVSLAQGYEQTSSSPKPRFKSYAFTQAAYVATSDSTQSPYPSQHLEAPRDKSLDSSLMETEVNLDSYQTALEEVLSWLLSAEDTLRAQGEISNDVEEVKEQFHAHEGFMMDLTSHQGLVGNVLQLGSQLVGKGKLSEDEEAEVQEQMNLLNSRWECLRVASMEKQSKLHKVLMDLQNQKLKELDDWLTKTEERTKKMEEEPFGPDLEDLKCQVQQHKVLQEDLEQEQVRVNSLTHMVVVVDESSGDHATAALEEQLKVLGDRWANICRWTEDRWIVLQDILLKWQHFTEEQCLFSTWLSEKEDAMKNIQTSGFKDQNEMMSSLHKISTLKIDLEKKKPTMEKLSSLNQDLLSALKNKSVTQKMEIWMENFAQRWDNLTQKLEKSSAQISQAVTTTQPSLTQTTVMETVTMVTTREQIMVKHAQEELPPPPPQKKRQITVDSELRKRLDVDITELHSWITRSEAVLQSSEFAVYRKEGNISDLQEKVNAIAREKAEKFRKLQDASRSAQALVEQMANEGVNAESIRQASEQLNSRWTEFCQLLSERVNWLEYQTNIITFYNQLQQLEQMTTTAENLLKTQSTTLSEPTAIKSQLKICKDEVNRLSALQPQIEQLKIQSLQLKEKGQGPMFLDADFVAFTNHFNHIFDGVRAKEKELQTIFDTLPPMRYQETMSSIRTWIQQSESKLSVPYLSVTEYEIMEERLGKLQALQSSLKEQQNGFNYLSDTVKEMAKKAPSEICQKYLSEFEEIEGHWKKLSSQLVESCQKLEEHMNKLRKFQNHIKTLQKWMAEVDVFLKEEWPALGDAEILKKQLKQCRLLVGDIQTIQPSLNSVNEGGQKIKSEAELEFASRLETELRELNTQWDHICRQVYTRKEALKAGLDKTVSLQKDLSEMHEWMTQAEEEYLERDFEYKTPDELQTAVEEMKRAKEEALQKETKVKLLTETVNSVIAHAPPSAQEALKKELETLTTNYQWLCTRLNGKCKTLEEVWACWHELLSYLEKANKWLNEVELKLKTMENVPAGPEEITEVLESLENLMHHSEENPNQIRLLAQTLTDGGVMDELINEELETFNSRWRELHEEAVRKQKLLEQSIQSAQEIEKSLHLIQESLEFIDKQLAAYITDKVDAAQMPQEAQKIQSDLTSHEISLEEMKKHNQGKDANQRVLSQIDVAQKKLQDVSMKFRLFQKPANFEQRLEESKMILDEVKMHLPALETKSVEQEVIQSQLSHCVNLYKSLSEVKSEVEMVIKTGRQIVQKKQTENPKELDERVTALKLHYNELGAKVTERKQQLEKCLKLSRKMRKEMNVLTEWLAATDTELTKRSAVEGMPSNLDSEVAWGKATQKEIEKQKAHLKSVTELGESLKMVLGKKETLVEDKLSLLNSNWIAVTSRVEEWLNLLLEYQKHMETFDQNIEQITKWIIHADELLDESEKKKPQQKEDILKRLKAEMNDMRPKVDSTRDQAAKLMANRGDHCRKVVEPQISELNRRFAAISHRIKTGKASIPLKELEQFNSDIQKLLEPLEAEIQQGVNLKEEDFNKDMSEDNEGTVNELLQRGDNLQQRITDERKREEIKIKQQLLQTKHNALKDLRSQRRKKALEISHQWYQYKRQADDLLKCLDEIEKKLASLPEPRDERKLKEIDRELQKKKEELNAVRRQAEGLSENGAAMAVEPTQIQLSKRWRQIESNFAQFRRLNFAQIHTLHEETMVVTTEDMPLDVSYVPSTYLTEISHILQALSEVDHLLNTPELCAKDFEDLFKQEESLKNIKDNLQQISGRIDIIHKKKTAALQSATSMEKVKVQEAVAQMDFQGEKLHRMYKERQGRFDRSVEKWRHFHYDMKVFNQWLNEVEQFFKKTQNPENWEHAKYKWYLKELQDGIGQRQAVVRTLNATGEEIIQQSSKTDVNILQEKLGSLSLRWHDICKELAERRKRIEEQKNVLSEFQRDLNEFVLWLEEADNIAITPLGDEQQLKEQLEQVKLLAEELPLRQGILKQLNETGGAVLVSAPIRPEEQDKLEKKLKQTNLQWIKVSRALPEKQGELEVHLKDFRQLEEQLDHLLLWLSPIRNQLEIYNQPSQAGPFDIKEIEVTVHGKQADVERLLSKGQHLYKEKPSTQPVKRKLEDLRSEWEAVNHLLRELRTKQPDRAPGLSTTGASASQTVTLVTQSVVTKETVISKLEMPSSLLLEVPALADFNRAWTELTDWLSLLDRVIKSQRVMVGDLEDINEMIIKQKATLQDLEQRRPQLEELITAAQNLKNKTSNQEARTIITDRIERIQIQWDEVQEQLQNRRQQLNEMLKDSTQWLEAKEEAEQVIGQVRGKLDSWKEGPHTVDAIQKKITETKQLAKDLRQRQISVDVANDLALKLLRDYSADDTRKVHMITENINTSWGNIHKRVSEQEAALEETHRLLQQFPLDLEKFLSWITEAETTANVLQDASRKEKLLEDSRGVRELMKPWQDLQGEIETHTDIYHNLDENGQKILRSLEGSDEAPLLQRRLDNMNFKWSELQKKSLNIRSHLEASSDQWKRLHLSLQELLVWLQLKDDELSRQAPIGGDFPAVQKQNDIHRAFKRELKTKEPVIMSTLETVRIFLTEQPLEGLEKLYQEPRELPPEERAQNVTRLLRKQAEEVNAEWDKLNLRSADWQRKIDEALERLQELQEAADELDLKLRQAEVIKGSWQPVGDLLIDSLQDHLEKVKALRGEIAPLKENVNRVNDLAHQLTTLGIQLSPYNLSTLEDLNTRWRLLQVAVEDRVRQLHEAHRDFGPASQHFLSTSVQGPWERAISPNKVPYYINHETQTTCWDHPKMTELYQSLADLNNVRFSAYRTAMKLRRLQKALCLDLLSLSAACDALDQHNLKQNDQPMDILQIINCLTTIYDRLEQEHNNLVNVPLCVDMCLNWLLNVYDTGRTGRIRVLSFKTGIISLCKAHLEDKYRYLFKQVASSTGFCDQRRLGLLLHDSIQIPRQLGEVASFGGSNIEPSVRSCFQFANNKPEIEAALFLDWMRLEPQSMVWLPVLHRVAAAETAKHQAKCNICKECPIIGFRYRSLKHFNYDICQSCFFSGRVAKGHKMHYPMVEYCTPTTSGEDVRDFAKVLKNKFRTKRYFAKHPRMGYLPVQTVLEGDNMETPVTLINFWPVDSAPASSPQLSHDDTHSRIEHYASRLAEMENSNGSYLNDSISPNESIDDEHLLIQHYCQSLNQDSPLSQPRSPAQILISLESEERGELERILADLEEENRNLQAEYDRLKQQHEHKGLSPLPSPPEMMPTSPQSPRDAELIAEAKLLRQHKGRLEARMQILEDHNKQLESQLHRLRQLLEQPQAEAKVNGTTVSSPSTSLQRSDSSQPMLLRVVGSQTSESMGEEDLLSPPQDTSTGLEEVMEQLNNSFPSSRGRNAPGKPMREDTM

T1: α-1-syntrophin (mouse (endogenous in skeletal muscle)) (UniProt Q61234)
T1 sequence: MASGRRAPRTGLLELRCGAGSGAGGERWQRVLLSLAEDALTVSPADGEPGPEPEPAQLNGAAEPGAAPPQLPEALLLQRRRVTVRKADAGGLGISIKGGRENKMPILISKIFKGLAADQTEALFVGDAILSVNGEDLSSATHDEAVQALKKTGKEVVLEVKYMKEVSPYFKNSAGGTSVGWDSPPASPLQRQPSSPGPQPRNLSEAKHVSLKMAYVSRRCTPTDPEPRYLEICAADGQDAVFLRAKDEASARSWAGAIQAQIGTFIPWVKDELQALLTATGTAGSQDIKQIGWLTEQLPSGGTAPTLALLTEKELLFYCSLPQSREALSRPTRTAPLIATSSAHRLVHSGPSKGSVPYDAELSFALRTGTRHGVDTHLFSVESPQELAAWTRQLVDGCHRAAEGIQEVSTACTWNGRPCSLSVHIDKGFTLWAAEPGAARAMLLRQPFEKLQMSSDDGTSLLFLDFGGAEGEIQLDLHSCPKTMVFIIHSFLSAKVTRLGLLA

T2: 6His-tagged plakoglobin (UniProt P14923)
T2 sequence: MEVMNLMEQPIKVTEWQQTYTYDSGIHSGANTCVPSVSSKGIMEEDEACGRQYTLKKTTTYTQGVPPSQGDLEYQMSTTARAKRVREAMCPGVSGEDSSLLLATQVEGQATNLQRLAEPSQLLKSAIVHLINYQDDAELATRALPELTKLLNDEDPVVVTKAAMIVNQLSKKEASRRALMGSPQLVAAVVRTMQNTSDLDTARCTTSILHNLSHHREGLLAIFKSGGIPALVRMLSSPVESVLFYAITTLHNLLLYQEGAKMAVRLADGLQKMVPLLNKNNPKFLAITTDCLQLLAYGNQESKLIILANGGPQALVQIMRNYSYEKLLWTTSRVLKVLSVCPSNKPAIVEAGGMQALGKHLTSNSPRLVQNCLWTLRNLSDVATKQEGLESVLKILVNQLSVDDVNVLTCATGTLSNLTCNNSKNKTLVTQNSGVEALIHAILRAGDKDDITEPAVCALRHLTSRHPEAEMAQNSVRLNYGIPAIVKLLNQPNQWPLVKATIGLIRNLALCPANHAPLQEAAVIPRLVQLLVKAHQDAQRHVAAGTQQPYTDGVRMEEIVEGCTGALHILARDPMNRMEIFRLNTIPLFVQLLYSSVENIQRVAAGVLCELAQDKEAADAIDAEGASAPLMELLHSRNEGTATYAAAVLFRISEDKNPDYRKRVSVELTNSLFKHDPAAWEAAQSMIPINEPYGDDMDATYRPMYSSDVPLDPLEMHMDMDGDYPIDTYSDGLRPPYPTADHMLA

T3: plakoglobin (mouse (endogenous in skeletal muscle, heart, liver)) (UniProt Q02257)
T3 sequence: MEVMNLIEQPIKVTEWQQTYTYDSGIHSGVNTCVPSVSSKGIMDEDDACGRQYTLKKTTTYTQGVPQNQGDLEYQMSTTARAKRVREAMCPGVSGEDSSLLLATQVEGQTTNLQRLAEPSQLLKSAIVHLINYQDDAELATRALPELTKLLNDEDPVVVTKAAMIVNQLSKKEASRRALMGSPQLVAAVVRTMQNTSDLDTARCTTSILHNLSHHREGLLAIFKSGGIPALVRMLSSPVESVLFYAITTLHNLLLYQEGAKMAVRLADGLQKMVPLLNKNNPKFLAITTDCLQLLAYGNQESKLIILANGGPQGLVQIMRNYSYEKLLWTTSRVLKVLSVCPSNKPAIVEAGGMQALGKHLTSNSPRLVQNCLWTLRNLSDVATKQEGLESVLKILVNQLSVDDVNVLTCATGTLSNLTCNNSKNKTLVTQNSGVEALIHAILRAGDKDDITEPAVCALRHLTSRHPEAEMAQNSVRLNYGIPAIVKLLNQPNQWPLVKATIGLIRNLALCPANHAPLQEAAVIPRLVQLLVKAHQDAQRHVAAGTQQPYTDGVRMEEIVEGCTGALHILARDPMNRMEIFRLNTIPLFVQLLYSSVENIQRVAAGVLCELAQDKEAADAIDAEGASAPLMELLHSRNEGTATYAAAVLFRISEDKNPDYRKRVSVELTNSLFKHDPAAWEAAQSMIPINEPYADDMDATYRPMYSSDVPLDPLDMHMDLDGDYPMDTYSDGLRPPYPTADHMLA

T4: 6His-V5-plakoglobin (FL) (UniProt P14923)
T4 sequence: T2 sequence

B1: vinculin (protein, UniProt Q64727 1-1066)
chain: MPVFHTRTIESILEPVAQQISHLVIMHEEGEVDGKAIPDLTAPVAAVQAAVSNLVRVGKETVQTTEDQILKRDMPPAFIKVENACTKLVQAAQMLQSDPYSVPARDYLIDGSRGILSGTSDLLLTFDEAEVRKIIRVCKGILEYLTVAEVVETMEDLVTYTKNLGPGMTKMAKMIDERQQELTHQEHRVMLVNSMNTVKELLPVLISAMKIFVTTKNSKNQGIEEALKNRNFTVEKMSAEINEIIRVLQLTSWDEDAWASKDTEAMKRALASIDSKLNQAKGWLRDPNASPGDAGEQAIRQILDEAGKVGELCAGKERREILGTCKMLGQMTDQVADLRARGQGASPVAMQKAQQVSQGLDVLTAKVENAARKLEAMTNSKQSIAKKIDAAQNWLADPNGGPEGEEQIRGALAEARKIAELCDDPKERDDILRSLGEIAALTSKLGDLRRQGKGDSPEARALAKQVATALQNLQTKTNRAVANSRPAKAAVHLEGKIEQAQRWIDNPTVDDRGVGQAAIRGLVAEGHRLANVMMGPYRQDLLAKCDRVDQLTAQLADLAARGEGESPQARALASQLQDSLKDLKAQMQEAMTQEVSDVFSDTTTPIKLLAVAATAPPDAPNREEVFDERAANFENHSGRLGATAEKAAAVGTANKSTVEGIQASVKTARELTPQVISAARILLRNPGNQAAYEHFETMKNQWIDNVEKMTGLVDEAIDTKSLLDASEEAIKKDLDKCKVAMANIQPQMLVAGATSIARRANRILLVAKREVENSEDPKFREAVKAASDELSKTISPMVMDAKAVAGNISDPGLQKSFLDSGYRILGAVAKVREAFQPQEPDFPPPPPDLEQLRLTDELAPPKPPLPEGEVPPPRPPPPEEKDEEFPEQKAGEVINQPMMMAARQLHDEARKWSSKGNDIIAAAKRMALLMAEMSRLVRGGSGTKRALIQCAKDIAKASDEVTRLAKEVAKQCTDKRIRTNLLQVCERIPTISTQLKILSTVKATMLGRTNISDEESEQATEMLVHNAQNLMQSVKETVREAEAASIKIRTDAGFTLRWVRKTPWYQ
B2: caveolin-1 (protein, UniProt P49817 1-178)
chain: MSGGKYVDSEGHLYTVPIREQGNIYKPNNKAMADEVTEKQVYDAHTKEIDLVNRDPKHLNDDVVKIDFEDVIAEPEGTHSFDGIWKASFTTFTVTKYWFYRLLSTIFGIPMALIWGIYFAILSFLHIWAVVPCIKSFLIEIQCISRVYSIYVHTFCDPLFEAIGKIFSNIRISTQKEI
B3: β-dystroglycan (protein, UniProt Q62165 652-893)
chain: SIVVEWTNNTLPLEPCPKEQIIGLSRRIADENGKPRPAFSNALEPDFKALSIAVTGSGSCRHLQFIPVAPPSPGSSAAPATEVPDRDPEKSSEDDVYLHTVIPAVVVAAILLIAGIIAMICYRKKRKGKLTLEDQATFIKKGVPIIFADELDDSKPPPSSSMPLILQEEKAPLPPPEYPNQSMPETTPLNQDTVGEYTPLRDEDPNAPPYQPPPPFTAPMEGKGSRPKNMTPYRSPPPYVPP
modifications: glycosylated form in the plakoglobin-containing fractions (sites not given)
B4: Tyrosine Kinase Receptor, MuSK (receptor, UniProt Q61006 22-868)
chain: EKLPKAPVITTPLETVDALVEEVATFMCAVESYPQPEISWTRNKILIKLFDTRYSIRENGQLLTILSVEDSDDGIYCCIANNGVGGAVESCGALQVKMKPKITRPPINVKIIEGLKAVLPCTTMGNPKPSVSWIKGDNALRENSRIAVLESGSLRIHNVQKEDAGQYRCVAKNSLGTAYSKLVKLEVEVFARILRAPESHNVTFGSFVTLRCTAIGIPVPTISWIENGNAVSSGSIQESVKDRVIDSRLQLFITKPGLYTCIATNKHGEKFSTAKAAATVSIAEWSKSQKDSQGYCAQYRGEVCDAVLAKDALVFFNTSYRDPEDAQELLIHTAWNELKAVSPLCRPAAEALLCNHLFQECSPGVVPTPMPICREYCLAVKELFCAKEWQAMEGKAHRGLYRSGMHLLPVPECSKLPSMHRDPTACTRLPYLDYKKENITTFPSITSSRPSADIPNLPASTSSFAVSPAYSMTVIISIVSSFALFALLTIATLYCCRRRKEWKNKKRESTAVTLTTLPSELLLDRLHPNPMYQRMPLLLNPKLLSLEYPRNNIEYVRDIGEGAFGRVFQARAPGLLPYEPFTMVAVKMLKEEASADMQADFQREAALMAEFDNPNIVKLLGVCAVGKPMCLLFEYMAYGDLNEFLRSMSPHTVCSLSHSDLSTRARVSSPGPPPLSCAEQLCIARQVAAGMAYLSERKFVHRDLATRNCLVGETMVVKIADFGLSRNIYSADYYKADGNDAIPIRWMPPESIFYNRYTTESDVWAYGVVLWEIFSYGLQPYYGMAHEEVIYYVRDGNILACPENCPLELYNLMRLCWSKLPADRPSFCSIHRILQRMCERAEGTVGV

Columns and labels:
[1] = molecular target: T1, α-1-syntrophin (mouse (endogenous in skeletal muscle)); test: co-IP
6His-tagged plakoglobin = molecular target: T2, 6His-tagged plakoglobin; test: pull-down
[2] = molecular target: T3, plakoglobin (mouse (endogenous in skeletal muscle, heart, liver)); test: co-IP
6His-V5-plakoglobin (FL) = molecular target: T4, 6His-V5-plakoglobin (FL); test: pull-down
[3] = molecular target: T1, α-1-syntrophin (mouse (endogenous in skeletal muscle)); test: co-IP; remark: listed apart in the source
[4] = molecular target: T3, plakoglobin (mouse (endogenous in skeletal muscle, heart, liver)); test: co-IP; remark: listed apart in the source

Molecule	binding (6His-tagged plakoglobin)	binding [2]	also measured
dystrophin (from UniProt P11531 1-3678)	–	–	binding [1]: binds
B1	binds	–	–
B2	binds	binds	–
B3	–	binds	binding (6His-V5-plakoglobin (FL)): binds; binding [3]: binds
B4	–	no binding	binding [4]: no binding
